Experiment [1] addresses T1, Rrp6-FLAG (S. pombe) (UniProt Q10146).
T1 sequence: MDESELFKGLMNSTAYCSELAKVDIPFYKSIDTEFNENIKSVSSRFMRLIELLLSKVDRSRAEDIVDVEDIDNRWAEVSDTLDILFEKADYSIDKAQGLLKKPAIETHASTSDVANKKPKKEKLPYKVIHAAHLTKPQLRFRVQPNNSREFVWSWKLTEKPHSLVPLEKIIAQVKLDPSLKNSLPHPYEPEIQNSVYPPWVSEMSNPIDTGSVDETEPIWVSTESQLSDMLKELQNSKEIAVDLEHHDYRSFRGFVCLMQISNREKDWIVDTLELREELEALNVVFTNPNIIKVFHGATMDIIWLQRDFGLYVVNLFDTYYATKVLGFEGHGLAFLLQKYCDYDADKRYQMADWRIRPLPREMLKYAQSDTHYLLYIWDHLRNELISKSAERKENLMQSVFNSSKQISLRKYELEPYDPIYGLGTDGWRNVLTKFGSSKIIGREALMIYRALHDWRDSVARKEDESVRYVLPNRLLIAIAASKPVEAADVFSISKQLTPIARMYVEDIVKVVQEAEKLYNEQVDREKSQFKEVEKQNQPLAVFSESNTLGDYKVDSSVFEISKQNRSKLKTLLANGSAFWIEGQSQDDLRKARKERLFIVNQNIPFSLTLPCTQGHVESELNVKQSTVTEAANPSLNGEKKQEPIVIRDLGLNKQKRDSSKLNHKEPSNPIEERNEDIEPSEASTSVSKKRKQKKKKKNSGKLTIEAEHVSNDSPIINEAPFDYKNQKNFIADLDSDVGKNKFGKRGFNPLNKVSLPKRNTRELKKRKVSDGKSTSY
Briefly: pull-down; in vitro binding assay: purified Rrp6-FLAG incubated with reticulocyte lysate expressing Red1-3HA (purified GST-YFP-Mmi1 also present); same buffers as a5; anti-FLAG (DDDDK) magnetic beads; blot with anti-HA; only the target purified.

Experiment [2] deals with T2, Red1(Δ196–245)-YFP (S. pombe) (UniProt Q9UTR8).
T2 sequence: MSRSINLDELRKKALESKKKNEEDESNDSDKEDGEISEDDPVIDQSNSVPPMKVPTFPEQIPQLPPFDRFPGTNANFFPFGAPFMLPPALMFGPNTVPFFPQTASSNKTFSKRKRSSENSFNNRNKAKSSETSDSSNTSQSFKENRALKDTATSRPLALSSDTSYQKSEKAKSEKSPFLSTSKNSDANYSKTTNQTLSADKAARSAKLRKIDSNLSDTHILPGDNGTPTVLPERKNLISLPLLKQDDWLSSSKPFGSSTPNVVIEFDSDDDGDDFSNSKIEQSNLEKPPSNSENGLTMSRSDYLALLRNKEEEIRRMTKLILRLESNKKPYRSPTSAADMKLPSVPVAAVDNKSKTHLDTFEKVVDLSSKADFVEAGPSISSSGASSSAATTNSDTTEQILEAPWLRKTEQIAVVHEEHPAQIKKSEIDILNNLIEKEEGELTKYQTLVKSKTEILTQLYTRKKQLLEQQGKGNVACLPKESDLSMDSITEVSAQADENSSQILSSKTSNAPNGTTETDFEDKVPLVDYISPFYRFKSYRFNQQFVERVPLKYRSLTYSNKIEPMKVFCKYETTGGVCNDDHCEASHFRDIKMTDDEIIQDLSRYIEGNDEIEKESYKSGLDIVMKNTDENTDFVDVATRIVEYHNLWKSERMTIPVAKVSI
Description: co-IP; native extracts of S. pombe cells expressing Red1-YFP or Red1(Δ196–245)-YFP; anti-GFP magnetic beads; blot with anti-Mmi1.

In the next experiment the target is T3, Red1-YFP (S. pombe) (UniProt Q9UTR8).
T3 sequence: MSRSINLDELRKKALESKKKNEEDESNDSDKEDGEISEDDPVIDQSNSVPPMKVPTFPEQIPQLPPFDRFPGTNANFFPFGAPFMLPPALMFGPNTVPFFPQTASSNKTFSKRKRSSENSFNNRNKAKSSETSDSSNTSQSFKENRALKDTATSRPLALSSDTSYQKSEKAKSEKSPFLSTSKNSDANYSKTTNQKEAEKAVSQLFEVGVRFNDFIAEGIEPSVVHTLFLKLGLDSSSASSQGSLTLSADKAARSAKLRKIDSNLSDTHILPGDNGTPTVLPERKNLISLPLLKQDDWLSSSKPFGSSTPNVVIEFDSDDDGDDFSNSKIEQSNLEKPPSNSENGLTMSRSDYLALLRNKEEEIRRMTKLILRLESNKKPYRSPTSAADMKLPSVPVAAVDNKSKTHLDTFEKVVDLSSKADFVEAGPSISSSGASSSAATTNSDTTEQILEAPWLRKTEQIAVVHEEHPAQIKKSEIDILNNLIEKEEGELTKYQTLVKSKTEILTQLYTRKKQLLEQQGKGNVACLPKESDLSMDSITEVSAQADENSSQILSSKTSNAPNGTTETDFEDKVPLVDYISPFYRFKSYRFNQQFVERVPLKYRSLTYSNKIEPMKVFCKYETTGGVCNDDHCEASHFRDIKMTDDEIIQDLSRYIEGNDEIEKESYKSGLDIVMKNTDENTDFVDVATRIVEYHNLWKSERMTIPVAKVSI
The experiment is described as above.

The target in experiment [3] is T1, Rrp6-FLAG (S. pombe). Briefly: pull-down; in vitro binding assay: purified Rrp6-FLAG incubated with purified GST-YFP-Mmi1 and control reticulocyte lysate or lysate expressing Red1-3HA; room temperature 30 min in 20 mM HEPES pH 7.5, 150 mM NaCl, 5 mM MgCl2, 1 mM DTT, 0.5% Triton-X100, 5% glycerol; anti-FLAG (DDDDK) magnetic beads; washed with 300 mM NaCl, 1% Triton-X100; both purified.

We go through three molecules from paper PMC7018101.

These are yes or no findings as the source states them, for the method shown. For some of these results: In cells and extracts the contact can be indirect. Some results given as binding are weak or reduced against the parent protein; the word gives no strength. Where a sequence is shown, tags or fusion partners need not be part of it.

B1: Red1-3HA (protein, UniProt Q9UTR8 1-712)
chain: MSRSINLDELRKKALESKKKNEEDESNDSDKEDGEISEDDPVIDQSNSVPPMKVPTFPEQIPQLPPFDRFPGTNANFFPFGAPFMLPPALMFGPNTVPFFPQTASSNKTFSKRKRSSENSFNNRNKAKSSETSDSSNTSQSFKENRALKDTATSRPLALSSDTSYQKSEKAKSEKSPFLSTSKNSDANYSKTTNQKEAEKAVSQLFEVGVRFNDFIAEGIEPSVVHTLFLKLGLDSSSASSQGSLTLSADKAARSAKLRKIDSNLSDTHILPGDNGTPTVLPERKNLISLPLLKQDDWLSSSKPFGSSTPNVVIEFDSDDDGDDFSNSKIEQSNLEKPPSNSENGLTMSRSDYLALLRNKEEEIRRMTKLILRLESNKKPYRSPTSAADMKLPSVPVAAVDNKSKTHLDTFEKVVDLSSKADFVEAGPSISSSGASSSAATTNSDTTEQILEAPWLRKTEQIAVVHEEHPAQIKKSEIDILNNLIEKEEGELTKYQTLVKSKTEILTQLYTRKKQLLEQQGKGNVACLPKESDLSMDSITEVSAQADENSSQILSSKTSNAPNGTTETDFEDKVPLVDYISPFYRFKSYRFNQQFVERVPLKYRSLTYSNKIEPMKVFCKYETTGGVCNDDHCEASHFRDIKMTDDEIIQDLSRYIEGNDEIEKESYKSGLDIVMKNTDENTDFVDVATRIVEYHNLWKSERMTIPVAKVSI
For B1, the binding entry in the experiment with Rrp6-FLAG (S. pombe) [1] was “binds”.

B2: Mmi1 (endogenous) (protein, UniProt O74958 1-488)
chain: MSNTNFSTSRSSKSIPELPNLEALRSLWPPPSLNESGDTRSVWTTHTGEPVASSVLSTSGSNNFSSPLKRPAPESHDAPIGRRLMVDDPRLIKHGKYDFSRHCTDYGHSYEWPYFRSLRRESMLYHTSGSYPESQPPYSSYSTDAPHYYHAGSESSAYYDSRSRLHGIQPPPKRRTLSPPPRRLADPVVVGSSRYVEEEVYRRPPYTLASEVPSSASAYQAGYSSYPVRSSPQLSHEDTRHGIASSGSTRYPFVPANTRASHSPSLLEPYAHSLPSSVAPVGAYPEKSSYLLSNSSNDSASRKEKPKARASTPPPLNFSRASEHRNEKGERISMINPRVVLDENGISHRSRYFIMLCDNETAIAHAKKTSIWAVKKDSSKRISDAYKKASVYFIFVAQQTYNALGYAQVVSDLNSTELPFWSDSSHAGGVRIKWIKTCNLFSAEISEIVSHMDHGSEARDGMEMMYDEGSRLCTLINYAIMKRIGRDR
Take B2: the binding result (in experiment [2]; with Red1-YFP (S. pombe)) was “binds” in each case.

B3: GST-YFP-Mmi1 (protein, UniProt O74958 1-488)
chain: MSNTNFSTSRSSKSIPELPNLEALRSLWPPPSLNESGDTRSVWTTHTGEPVASSVLSTSGSNNFSSPLKRPAPESHDAPIGRRLMVDDPRLIKHGKYDFSRHCTDYGHSYEWPYFRSLRRESMLYHTSGSYPESQPPYSSYSTDAPHYYHAGSESSAYYDSRSRLHGIQPPPKRRTLSPPPRRLADPVVVGSSRYVEEEVYRRPPYTLASEVPSSASAYQAGYSSYPVRSSPQLSHEDTRHGIASSGSTRYPFVPANTRASHSPSLLEPYAHSLPSSVAPVGAYPEKSSYLLSNSSNDSASRKEKPKARASTPPPLNFSRASEHRNEKGERISMINPRVVLDENGISHRSRYFIMLCDNETAIAHAKKTSIWAVKKDSSKRISDAYKKASVYFIFVAQQTYNALGYAQVVSDLNSTELPFWSDSSHAGGVRIKWIKTCNLFSAEISEIVSHMDHGSEARDGMEMMYDEGSRLCTLINYAIMKRIGRDR
As to B3, in the experiment with Rrp6-FLAG (S. pombe) [3], the binding result is listed as “binds weakly”.
